PMC12679585, “Design, synthesis, and characterization of novel 5-ethylsulfonyl-indazole-3-carboxamides as dual VEGFR-2 and EGFR inhibitors: apoptotic antiproliferative and immunomodulatory evaluations” (RSC Advances, 2025)

Tests used:
HCT-116 = experiment: Antiproliferative assay (MTT); assay type: cell-based, human; conditions: ratio of IC50 values
Excerpt: (§1) The MTT assay[53,54] was employed to evaluate the antiproliferative efficacy of new compounds 8a–l against two human cancer cell lines: MCF-7 (breast) and HCT-116 (colorectal carcinoma). Erlotinib was employed as the benchmark. Check Appendix A for additional experimental information.
(§2) The MTT assay[53,54] was used to evaluate the antiproliferative properties of novel compounds 8a–l against two human cancer cell lines: MCF-7 (breast cancer) and HCT-116 (colorectal carcinoma). Erlotinib was utilized as the reference. […] The provided values represent the means of three experiments ± standard deviation (SD). […]
(§3) of Ham's F-12 medium/ Dulbecco's modified Eagle's medium (DMEM) (1:1) supplemented with 10% foetal calf serum (GIBCO, UK), 2 mM glutamine, insulin (10 μg/mL), hydrocortisone (500 ng/mL) and epidermal growth factor (20 ng/mL). Trypsin ethylenediamine tetra acetic acid (EDTA) was used to passage the cells after every 2-3 days. 96-well flat-bottomed cell culture plates were used to seed the cells at a density of 10^4 cells mL-1. The medium was aspirated from all the wells of culture plates after 24 h followed by the addition of synthesized compounds (in 200 μL medium to yield a final concentration of 0.1% (v/v) dimethyl sulfoxide) into individual wells of the plates.
(§4) Four wells were designated to a single compound. The plates were allowed to incubate at 37°C for 96 h. Afterwards, the medium was aspirated and 3-[4,5-dimethylthiazol-2-yl]-2,5-diphenyltetrazolium bromide (MTT) (0.4 mg/mL) in medium was added to each well and subsequently incubated for 3 h. The medium was aspirated and 150 μL dimethyl sulfoxide (DMSO) was added to each well. The plates were vortexed followed by the measurement of absorbance at 540 nm on a microplate reader. […]
(§5) All cell lines […]
(§6) were obtained from ATCC (American Type Cell Culture). […]
(§7) μM), benzamidine HCl (16 μg/mL), NaCl (10 mM),leupeptin (10 μg/mL) and pepstatin (10 μg/mL) at 0°C for 20 min at pH 7.4, followed by centrifugation for 20 min. To eliminate the nonspecifically bound material, a Ni-NTA super flow packed column was (1 picture or pasted object on this page, not shown here)

MCF-7 = experiment: Antiproliferative assay (MTT); assay type: cell-based, human; conditions: ratio of IC50 values
Excerpt: as §1, §2, §3, §4, §5, §6, §7

| Structure (SMILES) | Times less potent than 8h, HCT-116 (HCT-116) | Times less effective than 8h, MCF-7 (MCF-7) | Times more potent than erlotinib, HCT-116 (HCT-116) | Times more potent than erlotinib, MCF-7 (MCF-7) |
| --- | --- | --- | --- | --- |
| CCS(=O)(=O)c1ccc2[nH]nc(C(=O)NNC(=O)NC3CCC(C)CC3)c2c1 (stereo not drawn) [Compound 8f, 2-(5-(Ethylsulfonyl)-1H-indazole-3-carbonyl)-N-(4-methylcyclohexyl)hydrazine-1-carboxamide] | 1.70 times | half as effective |  |  |
| CCS(=O)(=O)c1ccc2[nH]nc(C(=O)NNC(=O)NC3CCCCCC3)c2c1 [Compound 8h, 2-(5-(Ethylsulfonyl)-1H-indazole-3-carbonyl)-N-(cycloheptyl)hydrazine-1-carboxamide] |  |  | approximately 1.3 times | 1.6 times |
| CCS(=O)(=O)c1ccc2[nH]nc(C(=O)NNC(=O)NC3CCCCC3)c2c1 [Compound 8e, 2-(5-(Ethylsulfonyl)-1H-indazole-3-carbonyl)-N-(cyclohexyl)hydrazine-1-carboxamide] | approximately 1.40 times | 1.56 times |  |  |
